From PubChem BioAssay AID743255 (National Center for Advancing Translational Sciences (NCATS), 2014)
About 910 (0.23%) of roughly 390,000 compounds were called active. The inconclusive results got no clear call from the source; some entries with a clear call stand among them for comparison. Calls come from the whole dose curve; as a rule, active = well fitted inhibition curve with a large enough effect; inconclusive = small, poorly fitted or top-dose-only effect; inactive = no such curve, though single readings can be large or run the other way. Potencies beside an inconclusive call are fits to weak or partial responses and may not hold up.
% is set by controls: 0 for no effect and ±100 for the full control effect; potency is the fitted concentration of half-maximal effect.
Note: nearly all actives have a fitted effect of over 60% in size.

The chains behind the UniProt entries cited, without tags or fusion partners. Where a name states a change or a piece, a line headed by the entry shows the natural chain unless it says otherwise.
UniProt O94782: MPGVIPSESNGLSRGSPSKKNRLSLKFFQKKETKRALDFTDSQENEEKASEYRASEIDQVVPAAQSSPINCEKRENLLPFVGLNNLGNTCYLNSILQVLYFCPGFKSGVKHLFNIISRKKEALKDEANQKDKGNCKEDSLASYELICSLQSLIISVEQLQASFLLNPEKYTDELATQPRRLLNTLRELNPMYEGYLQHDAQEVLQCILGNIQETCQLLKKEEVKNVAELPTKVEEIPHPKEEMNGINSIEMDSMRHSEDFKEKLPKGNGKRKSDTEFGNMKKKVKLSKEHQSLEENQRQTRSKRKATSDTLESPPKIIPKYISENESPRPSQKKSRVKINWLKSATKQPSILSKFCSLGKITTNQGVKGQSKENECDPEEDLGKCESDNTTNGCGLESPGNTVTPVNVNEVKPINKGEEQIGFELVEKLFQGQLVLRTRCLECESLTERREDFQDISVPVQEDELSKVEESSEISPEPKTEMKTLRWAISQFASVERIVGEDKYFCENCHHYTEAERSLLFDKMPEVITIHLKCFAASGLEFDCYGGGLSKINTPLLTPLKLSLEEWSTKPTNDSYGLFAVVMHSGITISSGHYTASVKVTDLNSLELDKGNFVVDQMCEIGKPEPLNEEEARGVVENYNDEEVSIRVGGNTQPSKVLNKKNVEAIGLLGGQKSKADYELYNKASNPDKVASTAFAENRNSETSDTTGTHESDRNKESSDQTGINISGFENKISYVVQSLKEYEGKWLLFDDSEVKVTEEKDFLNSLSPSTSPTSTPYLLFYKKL

What follows are compounds tested against Ubiquitin carboxyl-terminal hydrolase 1 (Homo sapiens) (UniProt O94782) (assay: Inhibitors of USP1/UAF1: Primary Screen). Settings: recombinant USP1/UAF1, Ub-Rhodamine cleavage fluorescence; activity change, negative = inhibition: at 57.1 µM (top of the series).
In short: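 In this screen, compounds sit with the deubiquitinase complex (1nM) for 15 min at room temperature before Ub-Rho is added at 150nM final. Fluorescence rise is then followed for 6 reads every 60 seconds.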
With `Cc1cc(/C=C2\C(=N)N3N=C(c4ccco4)SC3=NC2=O)c(C)n1Cc1ccccc1` the Potency was inconclusive: 39.8 µM [inhibitor, single point].
`Cc1c(C(=O)NCc2cccs2)oc2ccccc12` was tested, and the Potency was “inactive”.
With `COc1cc2c(cc1OC)C(c1ccc(-c3cc(Cl)ccc3Cl)o1)=NCC2` the Potency was inconclusive: 31.6 µM [inhibitor, single point].
With `Cc1cc(C)cc(NC(=O)c2sc3nc4n(c(=O)c3c2C)N=C(c2ccccc2)CS4)c1` the Potency was inconclusive: 44.7 µM [inhibitor, partial curve, poor fit].
With `COc1ccc(-c2nc(-c3ccccc3)ncc2S(C)(=O)=O)cc1` the Potency was “inactive”.
In the case of `O=C(O)c1ccc(CSc2nnc(-c3cccnc3)n2-c2ccc(Br)cc2)cc1`, the Potency is reported as “inactive”.
`Cc1cc(C)cc(NC(=O)CSc2ccc(-c3ccco3)nn2)c1` was tested, and the Potency was inconclusive: 0.355 µM [inhibitor, partial curve, poor fit].
`CCOc1ccc2c(c1)C(C)=CC(C)(C)N2` was tested, and the Potency was inconclusive: 35.5 µM [inhibitor, partial curve, poor fit].
For `COc1ccc2sc(-c3ccccc3OC)c(C#CC(C)(C)O)c2c1`, the Potency was inconclusive: 3.98 µM [inhibitor, full curve, poor fit].
`CCc1cccc(NC(=O)Cn2c(=O)n(CCC(=O)NCc3ccccc3Cl)c(=O)c3sccc32)c1` was tested, and the Potency was inconclusive: 15.8 µM [inhibitor, partial curve, poor fit].
In the case of `C=CCOc1c(CNC2CCCC2)cc(Cl)cc1OC`, the Potency is reported as “inactive”.
For `O=C(COc1ccc(Cl)cc1)NCCc1csc(-c2ccc(C(F)(F)F)cc2)n1`, the Potency was “inactive”.
For `Cc1cc(Nc2ccccc2C(=O)O)n2ncnc2n1`, the Potency was “inactive”.
In the case of `COc1ccccc1-c1cc(C(F)(F)F)nc(S(=O)(=O)CCCC(=O)Nc2ccccc2F)n1`, the Potency is reported as inconclusive: 14.1 µM [inhibitor, partial curve, poor fit].
In the case of `CCc1csc(CNC(=O)C2CCC(=O)N(Cc3cccc(OC)c3)C2)n1` (stereo unspecified), the Potency is reported as inconclusive: 0.112 µM [inhibitor, full curve, poor fit].
With `CC(=O)Nc1ccc2nc(SCCOc3ccc(C)cc3)sc2c1` the Potency was inconclusive: 0.282 µM [inhibitor, full curve, poor fit].
For `COc1ccc(OC)c(S(=O)(=O)Nc2ccccc2O)c1`, the Potency was “inactive”.
`COc1cc(OC)c(C(=O)NCc2nc(-c3ccccc3)no2)cc1OC` was tested, and the Potency was “inactive”.
With `O=C(Nc1cc(Cl)cc(Cl)c1)c1ccc(F)c(S(=O)(=O)N2CCCC2)c1` the Potency was inconclusive: 2.24 µM [inhibitor, partial curve].
With `CCCS(=O)(=O)NCc1cn2c(C)csc2n1` the Potency was inconclusive: 10 µM [inhibitor, partial curve].
`COc1ccc(NC(=O)Nc2cccc3c2O[C@H](CN(C)C(=O)Nc2ccc(OC)cc2)[C@@H](C)CN([C@H](C)CO)C3=O)cc1` was tested, and the Potency was inconclusive: 50.1 µM [inhibitor, partial curve, poor fit].
With `CC(=O)Nc1ccc(S(=O)(=O)N2CCC(N3CCN(Cc4ccc(C)cc4)C(=O)C3=O)CC2)cc1` the Potency was inconclusive: 11.2 µM [inhibitor, partial curve].
For `CCCc1cc(=O)[nH]c(SCC(=O)Nc2sc3c(c2C#N)CCC(C)C3)n1` (stereo unspecified), the Potency was inconclusive: 44.7 µM [inhibitor, partial curve].
In the case of `CC(=O)Nc1sc(N)nc1-c1ccccc1`, the Potency is reported as inconclusive: 39.8 µM [inhibitor, partial curve, poor fit].
`Cc1oc2c(cc(NS(=O)(=O)c3ccc(Br)cc3)c3ccccc32)c1C(=O)OCc1ccccc1` was tested, and the Potency was inconclusive: 44.7 µM [inhibitor, partial curve].
`COc1cc2c(C(=O)N3CCN(c4cccc(Cl)c4)CC3)cn(C)c(=O)c2cc1OC` was tested, and the Potency was inconclusive: 56.2 µM [inhibitor, partial curve, poor fit].
`CCn1cc(C(=O)OCC(=O)c2cc(C)n(-c3ccccc3F)c2C)c(=O)c2ccc(C)nc21` was tested, and the Potency was “inactive”.
`CC(C)C(=O)Nc1ccccc1C(=O)OCc1cc(=O)n2nc(C3CC3)sc2n1` was tested, and the Potency was inconclusive: 7.94 µM [inhibitor, single point].
With `CC1CCN(c2c(NCC3CCC(C(=O)NCc4ccccc4Cl)CC3)c(=O)c2=O)CC1` (stereo unspecified) the Potency was inconclusive: 0.251 µM [inhibitor, full curve, poor fit].
In the case of `CN1CN(C)C(c2ccncc2)=C1c1ccncc1`, the Potency is reported as inconclusive: 50.1 µM [inhibitor, partial curve, poor fit].
In the case of `Cc1cccc(OCCn2c(SCC(N)=O)nc3ccccc32)c1`, the Potency is reported as inconclusive: 0.0631 µM [inhibitor, full curve, poor fit].
For `C/C(=N/NC(=O)c1cc2ccccc2cc1O)C1C(=O)c2ccccc2C1=O`, the Potency was inconclusive: 31.6 µM [inhibitor, partial curve].
For `CCOc1ccc(Nc2nc(N)c([N+](=O)[O-])c(N3CCN(CC)CC3)n2)cc1`, the Potency was “inactive”.
For `COc1ccc(-c2nc3ccccc3n2Cc2ccc(C(C)C)cc2)cc1`, the Potency was inconclusive: 31.6 µM [inhibitor, partial curve].
`COc1ccc(/C=N/Nc2cc(OC)ncn2)cc1` was tested, and the Potency was “inactive”.
`O=C(Nc1ccc2nc(SCCOc3ccccc3)sc2c1)c1ccco1` was tested, and the Potency was inconclusive: 50.1 µM [inhibitor, partial curve, poor fit].
With `Cc1cccn2c(=O)c3cc(C(=O)NC(C)C)n(C)c3nc12` the Potency was inconclusive: 50.1 µM [inhibitor, single point].
In the case of `COC(=O)c1cc(CNC(=O)c2ccc(N3CCCC3)c([N+](=O)[O-])c2)ccc1OC`, the Potency is reported as inconclusive: 56.2 µM [inhibitor, partial curve, poor fit].
With `Cc1ccc(C(=O)N/C(=C/c2ccccc2F)C(=O)NCCCn2ccnc2)cc1` the Potency was “inactive”.
For `COc1ccccc1NC(=S)N/N=C/c1cccc(C)c1`, the activity change, negative = inhibition was inconclusive: -33.3% [inhibitor].
With `Cc1ccc(OCC(=O)NNC(=O)[C@@H]2CCCC[C@@H]2C(=O)O)c(Br)c1` the Potency was inconclusive: 100 µM [inhibitor, partial curve, poor fit].
In the case of `C[C@@H]1CN([C@@H](C)CO)C(=O)c2cccc(NC(=O)C3CCCCC3)c2O[C@@H]1CN(C)Cc1ccc(Cl)c(Cl)c1`, the Potency is reported as inconclusive: 70.8 µM [inhibitor, partial curve, poor fit].
`O=C(CCCNS(=O)(=O)c1cccs1)N1CCc2ccccc2C1` was tested, and the Potency was inconclusive: 39.8 µM [inhibitor, partial curve, poor fit].
For `COc1ccc(-c2oc3ccc(-c4ccc(OC)nc4)cc3c2C#CC2(O)CCCCC2)cc1`, the Potency was inconclusive: 0.251 µM [inhibitor, full curve, poor fit].
In the case of `Cc1ccc(Oc2ccc(OCC(=O)NC3CCS(=O)(=O)C3)cc2)cc1` (stereo unspecified), the Potency is reported as “inactive”.
`COc1ccc(-n2c(SCC(=O)Nc3ccccc3)nc3c(c2=O)SCC3)cc1` was tested, and the Potency was inconclusive: 44.7 µM [inhibitor, partial curve].
For `Cc1ccc2sc(N(CCCN(C)C)C(=O)c3ccco3)nc2c1C`, the Potency was inconclusive: 0.794 µM [inhibitor, full curve, poor fit].
In the case of `CCOC(=O)c1c(NC(=O)COC(=O)/C=C/c2ccco2)sc2c1CC(C)(C)NC2(C)C`, the Potency is reported as “inactive”.
In the case of `CCc1ccccc1NC(=O)c1cc(-c2ccc(OC)cc2)on1`, the Potency is reported as inconclusive: 0.794 µM [inhibitor, full curve, poor fit].
With `CCCCc1c(C)[nH]c(=S)[nH]c1=O` the Potency was inconclusive: 35.5 µM [inhibitor, partial curve].
For `CCN(CC)C(=O)COC(=O)c1cc(-c2ccco2)nc2ccccc12`, the Potency was “inactive”.
With `O=C(Nc1cccc(C(=O)O)c1)/C(=C\c1ccc2c(c1)OCO2)NC(=O)c1ccccc1Br` the Potency was “inactive”.
With `COc1cccc(C(=O)N(Cc2ccc(N(C)C)cc2)Cc2ccco2)c1` the Potency was “inactive”.
For `O=C(O)/C=C/c1cnc2ccccc2c1`, the Potency was inconclusive: 7.94 µM [inhibitor, single point].
`Cc1ccc(/C=C2\SC(=S)N(CCC(=O)N3CCOCC3)C2=O)cc1` was tested, and the Potency was inconclusive: 14.1 µM [inhibitor, partial curve, poor fit].
With `Cc1ccc(CN(Cc2ccco2)C(=S)NCC(=O)NC2CC2)cc1` the Potency was “inactive”.
In the case of `C=CCn1cc(/C=N/NC(=O)COc2cccc3cccnc23)c2ccccc21`, the Potency is reported as inconclusive: 31.6 µM [inhibitor, partial curve].
With `C[C@H](O)[C@@H]1CN2CCc3c([nH]c4ccccc34)[C@@H]2C[C@@H]1N(C)C(=O)Nc1cc(Cl)cc(Cl)c1` the Potency was inconclusive: 35.5 µM [inhibitor, partial curve, poor fit].
For `CC(C)CC(=O)Nc1ccc(Nc2ccccc2)cc1`, the Potency was “inactive”.
With `COc1ccc(NC(=O)Nc2cccc3c2O[C@@H](CN(C)CC2CCCCC2)[C@@H](C)CN([C@H](C)CO)C3=O)cc1` the Potency was “inactive”.
For `CNc1ccc(-c2nc(-c3ccccn3)no2)cc1[N+](=O)[O-]`, the Potency was inconclusive: 50.1 µM [inhibitor, partial curve, poor fit].
`COc1ccc(CN(C)C(=O)c2cccc(NC(=O)CC3SC(N4CCCCC4)=NC3=O)c2)c(OC)c1` (stereo unspecified) was tested, and the Potency was “inactive”.
With `CN(Cc1ccccc1)C(=O)C(=O)Nc1ccc2nc3n(c(=O)c2c1)CCCCC3` the Potency was “inactive”.
In the case of `Oc1ccc(C=Nc2ccccc2-c2nc3ccccc3[nH]2)c(O)c1`, the Potency is reported as “inactive”.
`COc1ccc(OC)c(CNc2ccc([N+](=O)[O-])cc2C)c1` was tested, and the Potency was inconclusive: 39.8 µM [inhibitor, partial curve, poor fit].
In the case of `O=S1(=O)CCN(Cc2csc(-c3cccs3)n2)CC1`, the Potency is reported as “inactive”.
